Data on 1 substance can be found in paper PMC5889587.

By UniProt entry, the sequences of proteins in these tests, tags left out.
UniProt Q13547: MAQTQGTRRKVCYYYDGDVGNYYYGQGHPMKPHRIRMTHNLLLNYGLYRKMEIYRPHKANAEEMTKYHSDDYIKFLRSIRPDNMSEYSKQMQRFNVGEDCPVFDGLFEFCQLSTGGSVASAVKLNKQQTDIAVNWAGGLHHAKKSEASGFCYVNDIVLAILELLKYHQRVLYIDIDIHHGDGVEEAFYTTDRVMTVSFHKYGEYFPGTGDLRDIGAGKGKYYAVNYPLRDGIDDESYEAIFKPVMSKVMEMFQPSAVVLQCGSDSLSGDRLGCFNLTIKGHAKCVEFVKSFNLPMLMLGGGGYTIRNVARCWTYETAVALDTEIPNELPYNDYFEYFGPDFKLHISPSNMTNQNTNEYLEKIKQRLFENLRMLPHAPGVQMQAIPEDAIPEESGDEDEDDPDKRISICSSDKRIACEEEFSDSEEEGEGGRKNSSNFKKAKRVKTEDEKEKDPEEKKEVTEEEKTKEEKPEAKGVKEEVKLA

For assay [1], the target named is T1, GST-SALL1 fusion protein, wild type SALL1 (2-137) (UniProt Q9NSC2).
T1 sequence: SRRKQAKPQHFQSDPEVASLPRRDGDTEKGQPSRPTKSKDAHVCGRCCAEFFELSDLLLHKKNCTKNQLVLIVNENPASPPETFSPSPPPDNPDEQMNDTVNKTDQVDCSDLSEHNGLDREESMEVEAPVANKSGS
The assay can be described thus: pull-down; GST-SALL1 fusions expressed in MCF-7 cells for 48-72 h; lysis buffer 1% Triton X-100, 200 mM sucrose, 50 mM Tris pH 7.4, sonication; 50 ug of total protein precipitated with glutathione-Sepharose beads for 2 h at 4 °C; western blot for endogenous NuRD components.

Assay [2] concerns the target T2, GST-SALL1-S2A fusion protein, SALL1 (2-137) (UniProt Q9NSC2).
T2 sequence: T1 sequence with S1A
Described as above.

Numbering of substitutions follows the chain as printed. No constants are given. Whether binding was seen depends on the method and setting. Binding seen in cells or lysates may run through a third protein. Some results given as binding are weak or reduced against the parent protein; the word gives no strength. Tags and fused reporters may be left off the sequences shown.

HDAC1 (from UniProt Q13547 1-482): the binding result in assay [1] and in assay [2] was “binds” throughout.
